Measured values reported in PMC11245519, “Ubiquitous purine sensor modulates diverse signal transduction pathways in bacteria” (Nature Communications, 2024).

These molecules were tested on R11 (WP_162024566-LBD) (assay: Microcalorimetric titration (ITC) of the R11 LBD with ligands). Settings: One binding site model, * = hyperbolic curve.
Parameters: species or system Lentimonas sp. CC4

In order of falling “N value, R11” value:
1. Nc1ncnc2[nH]cnc12 [Adenine]  0.22
2. Cc1c[nH]c(=O)[nH]c1=O [Thymine]  0.19
3. O=c1[nH]cnc2c1ncn2[C@@H]1O[C@H](CO)[C@@H](O)[C@H]1O [Inosine]  0.16
